Each structure is given as a SMILES string.

These results are taken from patent publication US11118065B2, “Fluorenylaminoketone photoinitiator, preparation method thereof, and UV photocurable composition containing same” (CHANGZHOU TRONLY ADVANCED ELECTRONIC MATERIALS CO., LTD., priority 2017, dated 2021).

A short description of series [1]: Example 23: UV solder resist ink. On the set-up: key to Odor: 1: odorless; 2: odorous; 3: irritatingly odorous; key to Pattern integrity: Δ: there was no defect; □: there were a few defects; ▴: there were severe defects. The settings on record: for Exposure demand mJ/cm^2: dry film 12-15 μm, 250-450 nm; for Odor: residual odor of cured film; for Yellowing: value of Δb.

Series [2] is described as follows: Example 21: UV coating on tin-plated steel plate. Conditions: for Exposure demand mJ/cm^2: 25 μm, 250-450 nm; for Adherence: crosscut test GB9286-88; for Odor: residual odor of cured film; for Yellowing: value of Δb, colorimeter scan 400-700 nm, after baking at 80° C. for 24 h. Also noted: key to Odor: 1: odorless; 2: odorous; 3: irritatingly odorous.
A short description of series [3]: Test of curing property: UV curing ink spray coated on ceramic tile. Conditions: hundred-grid crosscut method, 5% photoinitiator, 60-80 μm, UV 80 mw/cm^2 for 50s.
A short description of series [4]: Example 22: UV etching resist ink. The settings on record: for Odor: residual odor of cured film. Also noted: key to Odor: 1: odorless; 2: odorous; 3: irritatingly odorous; key to Pattern integrity: Δ: there was no defect; □: there were a few defects; ▴: there were severe defects.
Series [5] can be described thus: Example 25: UV offset printing ink on plastic substrate. The settings on record: for Exposure demand mJ/cm^2: 2 μm, 250-450 nm; for Adherence: crosscut test GB9286-88; for Odor: residual odor of cured film; for Yellowing: value of Δb. Also noted: key to Odor: 1: odorless; 2: odorous; 3: irritatingly odorous.

Take `C=CCC1(CC=C)c2cc(OC)ccc2-c2ccc(C(=O)C(C)(C)N3CCOCC3)cc21` [Compound 4]: the Pattern integrity entry in series [1] is on record as “Δ”. Moreover, the “Exposure demand mJ/cm^2” value in series [1] worked out at 100 mJ/cm^2; in series [2] it was 120 mJ/cm^2. The Odor in series [1] and in series [2] was 1 throughout. The Yellowing in series [1] is given as 0.78; in series [2] it was 0.72. The Adherence entry in series [2], in series [3] (black ink), in series [3] (blue ink), in series [3] (red ink) and in series [3] (yellow ink) was “Level 0” throughout.
In the case of `CCCCC1(CCCC)c2ccccc2-c2ccc(C(=O)C(C)(C)N3CCOCC3)cc21` [Compound 5], the Pattern integrity entry in series [1] and in series [4] was “Δ” each time. Further, the “Exposure demand mJ/cm^2” value in series [1] is listed as 90 mJ/cm^2; in series [2], 110 mJ/cm^2. In addition, the Odor in series [1], in series [2] and in series [4] was 1 each time. Further, the figures for the Yellowing in series [1] and in series [2] were 0.76 and 0.74, respectively. Further, the Adherence result in series [2], in series [3] (black ink), in series [3] (blue ink), in series [3] (red ink) and in series [3] (yellow ink) was “Level 0” throughout.
As for `CCCCC1(CCCC)c2cc(C(=O)C(C)(C)N3CCOCC3)ccc2-c2ccc([N+](=O)[O-])cc21` [Compound 7], in series [5], the “Exposure demand mJ/cm^2” value came to 110 mJ/cm^2, the Adherence result is given as “Level 0”, the Odor was 1 and the Yellowing is 0.58.
For `CCCCC1(CCCC)c2cc(C(=O)c3ccccc3)ccc2-c2ccc(C(=O)C(C)(C)N3CCOCC3)cc21` [Compound 9], the figures for the “Exposure demand mJ/cm^2” value in series [5] and in series [2] were 110 mJ/cm^2 and 130 mJ/cm^2, respectively. In addition, the Adherence result in series [5], in series [2], in series [3] (black ink), in series [3] (blue ink), in series [3] (red ink) and in series [3] (yellow ink) was “Level 0” in each case. In addition, the Odor in series [5] and in series [2] was 1 throughout. The figures for the Yellowing in series [5] and in series [2] were 0.66 and 0.68, respectively.
Turning to `CCCCC1(CCCC)c2cc(C(=O)C(CC)(Cc3ccccc3)N(C)C)ccc2-c2ccc(N3CCOCC3)cc21` (stereo not shown) [Compound 14], the “Exposure demand mJ/cm^2” value in series [5] and in series [2] was 110 mJ/cm^2 each time. Moreover, the Adherence result in series [5], in series [2], in series [3] (black ink), in series [3] (blue ink), in series [3] (red ink) and in series [3] (yellow ink) was “Level 0” in each case. The Odor in series [5] and in series [2] was 1 each time. For the same compound, the Yellowing in series [5] was determined as 0.68; in series [2] it was 0.74.
As to `CC1(C)c2ccccc2-c2ccc(C(=O)C(C)(C)N3CCCCC3)cc21` [Compound 15], in series [1], the Pattern integrity result was “Δ”, the “Exposure demand mJ/cm^2” value came to 90 mJ/cm^2, the Odor worked out at 1 and the Yellowing was 0.78. In series [4], the Pattern integrity entry is “Δ” and the Odor was 1.
For `CCCCC1(CCCC)c2ccccc2-c2ccc(C(=O)C(C)(Cc3ccccc3)N(C)C)cc21` (stereo not shown) [Compound 27], in series [5], the “Exposure demand mJ/cm^2” value amounted to 110 mJ/cm^2, the Adherence entry is listed as “Level 0”, the Odor came to 1 and the Yellowing is listed as 0.59. Further, in series [4], the Pattern integrity entry is “Δ” and the Odor was found to be 1.
Turning to `CC(Cc1ccccc1)(C(=O)c1ccc2c(c1)Cc1ccccc1-2)N1CCOCC1` (stereo not shown) [Compound 28], in series [2], the “Exposure demand mJ/cm^2” value came to 110 mJ/cm^2, the Adherence entry is “Level 0”, the Odor was 1 and the Yellowing was found to be 0.70.
Regarding `CN(C)C(C)(Cc1ccccc1)C(=O)c1ccc2c(c1)Cc1cc(C(=O)c3ccccc3)ccc1-2` (stereo not shown) [Compound 30], in series [5], the “Exposure demand mJ/cm^2” value is on record as 120 mJ/cm^2, the Adherence result is reported as “Level 0”, the Odor was 1 and the Yellowing turned out to be 0.68. Moreover, in series [1], the Pattern integrity entry is given as “Δ”, the “Exposure demand mJ/cm^2” value amounted to 110 mJ/cm^2, the Odor was 1 and the Yellowing turned out to be 0.76.
For `CCCCC1(CCCC)c2cc(C(=O)c3ccccc3)ccc2-c2ccc(C(=O)C(C)(Cc3ccccc3)N(C)C)cc21` (stereo not shown) [Compound 31], in series [4], the Pattern integrity entry is “Δ” and the Odor is reported as 1.
Consider `CCC(Cc1ccccc1)(C(=O)c1ccc2c(c1)Cc1cc(C(=O)c3ccccc3)ccc1-2)N1CCOCC1` (stereo not shown) [Compound 32], for which, in series [2], the “Exposure demand mJ/cm^2” value is reported as 110 mJ/cm^2, the Adherence entry is “Level 0”, the Odor was 1 and the Yellowing was determined as 0.68.
For `C=CCC1(CC=C)c2ccccc2-c2ccc(C(=O)C(C)(C)N3CCOCC3)cc21` [Compound 35], in series [5], the “Exposure demand mJ/cm^2” value is 100 mJ/cm^2, the Adherence result is “Level 0”, the Odor is reported as 1 and the Yellowing was 0.70. Also, in series [4], the Pattern integrity result is given as “Δ” and the Odor amounted to 1.
Turning to `CCCCC1(CCCC)c2cc(C)ccc2-c2ccc(C(=O)C(C)(CCC(C)(C(=O)c3ccc4c(c3)C(CCCC)(CCCC)c3cc(C)ccc3-4)N(C)C)N(C)C)cc21` (stereo not shown) [Compound 37], in series [4], the Pattern integrity result is reported as “Δ” and the Odor is 1.
Consider `CCC(Cc1ccccc1)(C(=O)c1ccc2c(c1)C(C)(C)c1cc(N3CCOCC3)ccc1-2)N(C)C` (stereo not shown) [Compound 38, 2-benzyl-2-dimethylamino-9,9-dimethyl-1-(7-morpholinofluorenyl)butanone], for which the “Exposure demand mJ/cm^2” value in series [5] came out at 110 mJ/cm^2; in series [1], 100 mJ/cm^2; in series [2], 110 mJ/cm^2. Besides, the Adherence result in series [5], in series [2], in series [3] (black ink), in series [3] (blue ink), in series [3] (red ink) and in series [3] (yellow ink) was “Level 0” throughout. In addition, the Odor in series [5], in series [1] and in series [2] was 1 throughout. Moreover, the Yellowing is 0.65 in series [5], 0.75 in series [1] and 0.68 in series [2]. In series [1], the Pattern integrity entry is reported as “Δ”.
On to `C=CCC(CC)(C(=O)c1ccc2c(c1)C(C)(C)c1cc(N3CCCCC3)ccc1-2)N(C)C` (stereo not shown) [Compound 39, 2-allyl-2-dimethylamino-9,9-dimethyl-2-(7-piperidinylfluorenyl)butanone], for which, in series [3] (blue ink), the Adherence entry was “Level 0”. Also, the Adherence entry in series [3] (yellow ink) is given as “Level 0”. Also, in series [4], the Pattern integrity entry is given as “Δ” and the Odor is recorded as 1.
`CCCCC1(CCCC)c2ccccc2-c2ccc(C(=O)C(CC)(Cc3ccccc3)N(C)C)cc21` (stereo not shown) [Compound 40, 2-benzyl-2-dimethylamino-9,9-dibutylfluorene-1-butanone]: the Adherence entry in series [3] (black ink), in series [3] (blue ink), in series [3] (red ink) and in series [3] (yellow ink) was “Level 0” in each case.
Consider `CCCCC1(CCCC)c2cc(C(=O)c3ccccc3)ccc2-c2ccc(C(=O)C(CC)(Cc3ccccc3)N(C)C)cc21` (stereo not shown) [Compound 41, 2-benzyl-2-dimethylamino-9,9-dibutyl-1-(7-benzoyl)butanone], for which the “Exposure demand mJ/cm^2” value in series [5] is 100 mJ/cm^2. Also, the Adherence result is “Level 0” in series [5]; “Level 1” in series [3] (black ink); “Level 0” in series [3] (blue ink); “Level 1” in series [3] (red ink); “Level 0” in series [3] (yellow ink). In series [5], this compound registered an Odor of 1. For the same compound, in series [5], the Yellowing stood at 0.64.
In the case of `CCCC1(CCC)c2cc(C(=O)C(CC)(Cc3ccccc3)N(C)C)ccc2-c2ccc(N3CCCCC3)cc21` (stereo not shown) [Compound 43], in series [5], the “Exposure demand mJ/cm^2” value stood at 110 mJ/cm^2. For the same compound, the Adherence result in series [5] is on record as “Level 0”; in series [3] (black ink), “Level 1”; in series [3] (blue ink), “Level 0”; in series [3] (red ink) it was “Level 1”; in series [3] (yellow ink) it was “Level 1”. In addition, the Odor in series [5] and in series [4] was 1 throughout. In series [5], the Yellowing is listed as 0.70. Further, in series [4], the Pattern integrity entry was “Δ”.
Take `CCC(Cc1ccccc1)(C(=O)c1ccc(N2CCOCC2)cc1)N(C)C` (stereo not shown) [Irgacure 369, 2-benzyl-2-dimethylamino-1-(4-morpholinophenyl)butanone, reference compound]: in series [5], the “Exposure demand mJ/cm^2” value turned out to be 210 mJ/cm^2. The Adherence result in series [5] is recorded as “Level 1”; in series [3] (black ink) it was “Level 3”; in series [3] (blue ink), “Level 2”; in series [3] (red ink) it was “Level 2”; in series [3] (yellow ink), “Level 2”. Besides, the Odor in series [5] was found to be 1. Also, the Yellowing in series [5] is on record as 1.08.
